This series concerns ovariectomized female mice. Nature of the series: Femoral length and ratio of femoral ash weight to femoral length in ovariectomized female mice. The class given is in vivo, ICR mice. To be noted: oral, 4 weeks, n = 11.

Each structure is given as a SMILES string.

In the case of `C[C@]12CC[C@@H]3c4ccc(O)cc4CC[C@H]3[C@@H]1CC[C@@H]2O` [17β-estradiol], the “Femoral length (mean ± SD)” value by setting is: (dose 0.23 μmol/kg/day) 16.87 ± 0.34 mm; (dose 2.3 μmol/kg/day) 16.72 ± 0.35 mm.

(Values after US20230233577A1, “17Beta-ESTRADIOL/VITAMIN C MOLECULAR COMPLEX, PREPARATION METHOD, AND USE THEREOF” (ZHEJIANG MEDICINE CO., LTD.XINCHANG PHARMACEUTICAL FACTORY, priority 2020, published 2023).)
